US20240277902A1, “METHOD FOR MANUFACTURING PERIPHERAL NERVE-MIMICKING MICROTISSUE AND USES THEREOF” (INNOSTEM BIO, priority 2021, published 2024)
At least one compound was matched to its structure with a doubt left.

Test system: constituent cells in the peripheral nerve-mimicking microtissue
Experiment: Cytoprotection by NAC and DEX in suspension culture (LIVE/DEAD, immunofluorescence)
Assay type: cell-based
Conditions: 1 mM NAC, 3 days
Excerpt: As a result of limitation in oxygen and nutrient exchange during the production process of peripheral nerve-mimicking microtissues, ROS accumulates in tissues, leading to cell damage and death. The Example is intended to present a cytoprotection method by dexamethasone (DEX) and N-acetylcysteine (NAC) to inhibit cell damage and death. PNSCs collected from the monolayer culture environment are suspended in a suspension culture medium at a density of 1.0E+06/mL. […] 1.0×10^5 cells per cm^2 area of a culture vessel is seeded in the ULA T75 flask (SPL Life Sciences) culture vessel. 1 mM NAC, 1 μM DEX, NAC and DEX were added simultaneously in 15 mL of suspension culture medium and cultured for 3 days. Cell death was assessed by LIVE/DEAD staining, and, for cell death, the survival rate was evaluated by calculating the total number of cells stained with DAPI and counting the number of cells that are positive for ethidium homodimer-1 (EthD-1). Moreover, the expression of p38 MAPK and cleaved caspase, which are factors that regulate cell death, and the degree of expression of p-Akt, an anti-cell death regulating factor, were evaluated through immunofluorescence staining.

C[C@@H]1C[C@H]2[C@@H]3CCC4=CC(=O)C=C[C@]4(C)[C@@]3(F)[C@@H](O)C[C@]2(C)[C@@]1(O)C(=O)CO [DEX, dexamethasone]
cytoprotective effect on constituent cells in the microtissue (survival rate, LIVE/DEAD, EthD-1) (1 μM DEX, or both in suspension culture medium): cytoprotective effect due to addition of DEX compared to NAC is great | expression of Hif, p38 MAPK, and cleaved caspase (cell death proteins) (1 μM DEX, or both, immunofluorescence staining): significantly inhibit
